Measured values published in PMC6098069.
These are yes or no findings as the source states them, for the method shown. Binding seen in cells or lysates may run through a third protein. Some results given as binding are weak or reduced against the parent protein; the word gives no strength.

Sequences of proteins named here, by UniProt entry; tags and fusion partners are left off. Residues count along the entry.
UniProt P08575, residues 26-1306: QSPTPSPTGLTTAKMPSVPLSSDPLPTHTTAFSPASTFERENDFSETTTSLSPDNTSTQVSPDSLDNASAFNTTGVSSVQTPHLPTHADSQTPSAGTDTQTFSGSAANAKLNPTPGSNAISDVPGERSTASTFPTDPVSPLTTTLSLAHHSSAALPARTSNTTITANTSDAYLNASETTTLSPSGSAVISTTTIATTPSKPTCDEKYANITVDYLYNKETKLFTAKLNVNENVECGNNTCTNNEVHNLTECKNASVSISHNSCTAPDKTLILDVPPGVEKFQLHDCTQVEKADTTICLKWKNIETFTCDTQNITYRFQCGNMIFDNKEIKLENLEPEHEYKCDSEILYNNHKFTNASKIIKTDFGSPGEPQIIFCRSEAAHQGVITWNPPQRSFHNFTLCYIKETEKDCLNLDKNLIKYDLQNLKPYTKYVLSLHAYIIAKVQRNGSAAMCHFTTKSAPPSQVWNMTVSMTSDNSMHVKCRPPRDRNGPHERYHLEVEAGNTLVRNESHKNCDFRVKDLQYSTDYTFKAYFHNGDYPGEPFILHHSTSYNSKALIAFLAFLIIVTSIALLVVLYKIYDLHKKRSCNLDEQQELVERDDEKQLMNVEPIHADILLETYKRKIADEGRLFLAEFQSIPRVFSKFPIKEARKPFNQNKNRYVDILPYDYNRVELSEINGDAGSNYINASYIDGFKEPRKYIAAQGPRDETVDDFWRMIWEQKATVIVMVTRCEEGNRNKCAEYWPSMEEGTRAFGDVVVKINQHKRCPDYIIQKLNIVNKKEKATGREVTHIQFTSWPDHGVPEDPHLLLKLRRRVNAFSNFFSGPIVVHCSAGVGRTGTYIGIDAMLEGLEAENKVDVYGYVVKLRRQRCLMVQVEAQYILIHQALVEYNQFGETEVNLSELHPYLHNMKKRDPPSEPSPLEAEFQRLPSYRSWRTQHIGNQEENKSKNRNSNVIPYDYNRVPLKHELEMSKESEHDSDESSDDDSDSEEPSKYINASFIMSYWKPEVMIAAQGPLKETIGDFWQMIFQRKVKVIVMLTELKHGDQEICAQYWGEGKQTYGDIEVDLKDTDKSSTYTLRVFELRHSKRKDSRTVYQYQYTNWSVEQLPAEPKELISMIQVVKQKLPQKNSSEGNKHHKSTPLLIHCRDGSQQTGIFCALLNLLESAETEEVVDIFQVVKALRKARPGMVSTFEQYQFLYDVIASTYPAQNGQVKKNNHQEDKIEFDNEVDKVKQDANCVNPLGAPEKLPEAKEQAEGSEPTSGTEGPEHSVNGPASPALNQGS

Experiments:
[1] = target: CD45 (full-length isoform CD45RABC), endogenous on human tonsillar naive B cells (human (endogenous in tonsillar naive B cells)) (UniProt P08575); experiment: co-IP; naive B cells labelled with 2 ug/mL recombinant Gal-9 in 1% BSA for 30 min on ice, washed, lysed in 2% NP-40 buffer (150 mM NaCl, 0.5 mM Tris, 1 mM EDTA); IP overnight with anti-Gal-9 or anti-CD45 antibody on Protein G-agarose; blot for Gal-9 or CD45; controls: isotype antibody, 200 mM lactose; only the binder purified
[2] = target: CD45 (full-length isoform CD45RABC), endogenous on human tonsillar naive B cells (human (endogenous in tonsillar naive B cells)) (UniProt P08575); experiment: co-IP; as for recombinant Gal-9 but no recombinant Gal-9 added; 200 ug B cell lysate in 2% NP-40 buffer; IP with anti-Gal-9 or anti-CD45 antibody on Protein G-agarose; blot for Gal-9 or CD45

## recombinant, E.coli-derived human Gal-9 (galectin-9) (from UniProt O00182 1-355)
[1]
  binding: binds

## endogenous Gal-9 of human tonsillar B cells (from UniProt O00182 1-355)
[2]
  binding: binds
